Results reported in US11065203B2, “Liposomal compositions and uses of same” (Technion Research & Development Foundation Limited, priority 2009, dated 2021).

Assay: Proteomics analysis (trypsin digest, LC-MS/MS) of hMSC ghosts and derived CDLs, conditioned or unconditioned by PC3 medium
Design: species or system human
Conditions: LC-MS/MS peak area per protein; for Ratio of expression Cond. CDLs/Cond. Ghosts: CDLs derived from conditioned hMSCs versus conditioned ghosts; for Ratio of expression Cond Ghosts/Ghosts: hMSC ghosts conditioned by PC3 medium versus unconditioned ghosts

| Molecule | Ratio of expression Cond. CDLs/Cond. Ghosts [%] | Ratio of expression Cond Ghosts/Ghosts [%] |
| --- | --- | --- |
| P02461 (protein, UniProt P02461 1-1466, looked up, full-length) MMSFVQKGSWLLLALLHPTIILAQQEAVEGGCSHLGQSYADRDVWKPEPCQICVCDSGSVLCDDIICDDQELDCPNPEIPFGECCAVCPQPPTAPTRPPNGQGPQGPKGDPGPPGIPGRNGDPGIPGQPGSPGSPGPPGICESCPTGPQNYSPQYDSYDVKSGVAVGGLAGYPGPAGPPGPPGPPGTSGHPGSPGSPGYQGPPGEPGQAGPSGPPGPPGAIGPSGPAGKDGESGRPGRPGERGLPGPPGIKGPAGIPGFPGMKGHRGFDGRNGEKGETGAPGLKGENGLPGENGAPGPMGPRGAPGERGRPGLPGAAGARGNDGARGSDGQPGPPGPPGTAGFPGSPGAKGEVGPAGSPGSNGAPGQRGEPGPQGHAGAQGPPGPPGINGSPGGKGEMGPAGIPGAPGLMGARGPPGPAGANGAPGLRGGAGEPGKNGAKGEPGPRGERGEAGIPGVPGAKGEDGKDGSPGEPGANGLPGAAGERGAPGFRGPAGPNGIPGEKGPAGERGAPGPAGPRGAAGEPGRDGVPGGPGMRGMPGSPGGPGSDGKPGPPGSQGESGRPGPPGPSGPRGQPGVMGFPGPKGNDGAPGKNGERGGPGGPGPQGPPGKNGETGPQGPPGPTGPGGDKGDTGPPGPQGLQGLPGTGGPPGENGKPGEPGPKGDAGAPGAPGGKGDAGAPGERGPPGLAGAPGLRGGAGPPGPEGGKGAAGPPGPPGAAGTPGLQGMPGERGGLGSPGPKGDKGEPGGPGADGVPGKDGPRGPTGPIGPPGPAGQPGDKGEGGAPGLPGIAGPRGSPGERGETGPPGPAGFPGAPGQNGEPGGKGERGAPGEKGEGGPPGVAGPPGGSGPAGPPGPQGVKGERGSPGGPGAAGFPGARGLPGPPGSNGNPGPPGPSGSPGKDGPPGPAGNTGAPGSPGVSGPKGDAGQPGEKGSPGAQGPPGAPGPLGIAGITGARGLAGPPGMPGPRGSPGPQGVKGESGKPGANGLSGERGPPGPQGLPGLAGTAGEPGRDGNPGSDGLPGRDGSPGGKGDRGENGSPGAPGAPGHPGPPGPVGPAGKSGDRGESGPAGPAGAPGPAGSRGAPGPQGPRGDKGETGERGAAGIKGHRGFPGNPGAPGSPGPAGQQGAIGSPGPAGPRGPVGPSGPPGKDGTSGHPGPIGPPGPRGNRGERGSEGSPGHPGQPGPPGPPGAPGPCCGGVGAAAIAGIGGEKAGGFAPYYGDEPMDFKINTDEIMTSLKSVNGQIESLISPDGSRKNPARNCRDLKFCHPELKSGEYWVDPNQGCKLDAIKVFCNMETGETCISANPLNVPRKHWWTDSSAEKKHVWFGESMDGGFQFSYGNPELPEDVLDVHLAFLRLLSSRASQNITYHCKNSIAYMDQASGNVKKALKLMGSNEGEFKAEGNSKFTYTVLEDGCTKHTGEWSKTVFEYRTRKAVRLPIVDIAPYDIGGPDQEFGVDVGPVCFL | 6 | 35 |
| O95782 (protein, UniProt O95782 1-977, looked up, full-length) MPAVSKGDGMRGLAVFISDIRNCKSKEAEIKRINKELANIRSKFKGDKALDGYSKKKYVCKLLFIFLLGHDIDFGHMEAVNLLSSNKYTEKQIGYLFISVLVNSNSELIRLINNAIKNDLASRNPTFMCLALHCIANVGSREMGEAFAADIPRILVAGDSMDSVKQSAALCLLRLYKASPDLVPMGEWTARVVHLLNDQHMGVVTAAVSLITCLCKKNPDDFKTCVSLAVSRLSRIVSSASTDLQDYTYYFVPAPWLSVKLLRLLQCYPPPEDAAVKGRLVECLETVLNKAQEPPKSKKVQHSNAKNAILFETISLIIHYDSEPNLLVRACNQLGQFLQHRETNLRYLALESMCTLASSEFSHEAVKTHIDTVINALKTERDVSVRQRAADLLYAMCDRSNAKQIVSEMLRYLETADYAIREEIVLKVAILAEKYAVDYSWYVDTILNLIRIAGDYVSEEVWYRVLQIVTNRDDVQGYAAKTVFEALQAPACHENMVKVGGYILGEFGNLIAGDPRSSPPVQFSLLHSKFHLCSVATRALLLSTYIKFINLFPETKATIQGVLRAGSQLRNADVELQQRAVEYLTLSSVASTDVLATVLEEMPPFPERESSILAKLKRKKGPGAGSALDDGRRDPSSNDINGGMEPTPSTVSTPSPSADLLGLRAAPPPAAPPASAGAGNLLVDVFDGPAAQPSLGPTPEEAFLSELEPPAPESPMALLADPAPAADPGPEDIGPPIPEADELLNKFVCKNNGVLFENQLLQIGVKSEFRQNLGRMYLFYGNKTSVQFQNFSPTVVHPGDLQTQLAVQTKRVAAQVDGGAQVQQVLNIECLRDFLTPPLLSVRFRYGGAPQALTLKLPVTINKFFQPTEMAAQDFFQRWKQLSLPQQEAQKIFKANHPMDAEVTKAKLLGFGSALLDNVDPNPENFVGAGIIQTKALQVGCLLRLEPNAQAQMYRLTLRTSKEPVSRHLCELLAQQF | 5 | 142 |
| Q8TCJ2 (protein, UniProt Q8TCJ2 1-826, looked up, full-length) MAEPSAPESKHKSSLNSSPWSGLMALGNSRHGHHGPGAQCAHKAAGGAAPPKPAPAGLSGGLSQPAGWQSLLSFTILFLAWLAGFSSRLFAVIRFESIIHEFDPWFNYRSTHHLASHGFYEFLNWFDERAWYPLGRIVGGTVYPGLMITAGLIHWILNTLNITVHIRDVCVFLAPTFSGLTSISTFLLTRELWNQGAGLLAACFIAIVPGYISRSVAGSFDNEGIAIFALQFTYYLWVKSVKTGSVFWTMCCCLSYFYMVSAWGGYVFIINLIPLHVFVLLLMQRYSKRVYIAYSTFYIVGLILSMQIPFVGFQPIRTSEHMAAAGVFALLQAYAFLQYLRDRLTKQEFQTLFFLGVSLAAGAVFLSVIYLTYTGYIAPWSGRFYSLWDTGYAKIHIPIIASVSEHQPTTWVSFFFDLHILVCTFPAGLWFCIKNINDERVFVALYAISAVYFAGVMVRLMLTLTPVVCMLSAIAFSNVFEHYLGDDMKRENPPVEDSSDEDDKRNQGNLYDKAGKVRKHATEQEKTEEGLGPNIKSIVTMLMLMLLMMFAVHCTWVTSNAYSSPSVVLASYNHDGTRNILDDFREAYFWLRQNTDEHARVMSWWDYGYQIAGMANRTTLVDNNTWNNSHIALVGKAMSSNETAAYKIMRTLDVDYVLVIFGGVIGYSGDDINKFLWMVRIAEGEHPKDIRESDYFTPQGEFRVDKAGSPTLLNCLMYKMSYYRFGEMQLDFRTPPGFDRTRNAEIGNKDIKFKHLEEAFTSEHWLVRIYKVKAPDNRETLDHKPRVTNIFPKQKYLSKKTTKRKRGYIKNKLVFKKGKKISKKTV | 1 | 155 |
| P30084 (protein, UniProt P30084 1-290, looked up, full-length) MAALRVLLSCVRGPLRPPVRCPAWRPFASGANFEYIIAEKRGKNNTVGLIQLNRPKALNALCDGLIDELNQALKTFEEDPAVGAIVLTGGDKAFAAGADIKEMQNLSFQDCYSSKFLKHWDHLTQVKKPVIAAVNGYAFGGGCELAMMCDIIYAGEKAQFAQPEILIGTIPGAGGTQRLTRAVGKSLAMEMVLTGDRISAQDAKQAGLVSKICPVETLVEEAIQCAEKIASNSKIVVAMAKESVNAAFEMTLTEGSKLEKKLFYSTFATDDRKEGMTAFVEKRKANFKDQ | 3 | 57 |
| O43852 (protein, UniProt O43852 1-315, looked up, full-length) MDLRQFLMCLSLCTAFALSKPTEKKDRVHHEPQLSDKVHNDAQSFDYDHDAFLGAEEAKTFDQLTPEESKERLGKIVSKIDGDKDGFVTVDELKDWIKFAQKRWIYEDVERQWKGHDLNEDGLVSWEEYKNATYGYVLDDPDPDDGFNYKQMMVRDERRFKMADKDGDLIATKEEFTAFLHPEEYDYMKDIVVQETMEDIDKNADGFIDLEEYIGDMYSHDGNTDEPEWVKTEREQFVEFRDKNRDGKMDKEETKDWILPSDYDHAEAEARHLVYESDQNKDGKLTKEEIVDKYDLFVGSQATDFGEALVRHDEF | 2 | 143 |
| P37802 (protein, UniProt P37802 1-199, looked up, full-length) MANRGPAYGLSREVQQKIEKQYDADLEQILIQWITTQCRKDVGRPQPGRENFQNWLKDGTVLCELINALYPEGQAPVKKIQASTMAFKQMEQISQFLQAAERYGINTTDIFQTVDLWEGKNMACVQRTLMNLGGLAVARDDGLFSGDPNWFPKKSKENPRNFSDNQLQEGKNVIGLQMGTNRGASQAGMTGYGMPRQIL | 4 | 61 |
| P51148 (protein, UniProt P51148 1-216, looked up, full-length) MAGRGGAARPNGPAAGNKICQFKLVLLGESAVGKSSLVLRFVKGQFHEYQESTIGAAFLTQTVCLDDTTVKFEIWDTAGQERYHSLAPMYYRGAQAAIVVYDITNTDTFARAKNWVKELQRQASPNIVIALAGNKADLASKRAVEFQEAQAYADDNSLLFMETSAKTAMNVNEIFMAIAKKLPKNEPQNATGAPGRNRGVDLQENNPASRSQCCSN | 6 | 161 |
| O75390 (protein, UniProt O75390 1-466, looked up, full-length) MALLTAAARLLGTKNASCLVLAARHASASSTNLKDILADLIPKEQARIKTFRQQHGKTVVGQITVDMMYGGMRGMKGLVYETSVLDPDEGIRFRGFSIPECQKLLPKAKGGEEPLPEGLFWLLVTGHIPTEEQVSWLSKEWAKRAALPSHVVTMLDNFPTNLHPMSQLSAAVTALNSESNFARAYAQGISRTKYWELIYEDSMDLIAKLPCVAAKIYRNLYREGSGIGAIDSNLDWSHNFTNMLGYTDHQFTELTRLYLTIHSDHEGGNVSAHTSHLVGSALSDPYLSFAAAMNGLAGPLHGLANQEVLVWLTQLQKEVGKDVSDEKLRDYIWNTLNSGRVVPGYGHAVLRKTDPRYTCQREFALKHLPNDPMFKLVAQLYKIVPNVLLEQGKAKNPWPNVDAHSGVLLQYYGMTEMNYYTVLFGVSRALGVLAQLIWSRALGFPLERPKSMSTEGLMKFVDSKSG | 3 | 157 |
| P35914 (protein, UniProt P35914 1-325, looked up, full-length) MAAMRKALPRRLVGLASLRAVSTSSMGTLPKRVKIVEVGPRDGLQNEKNIVSTPVKIKLIDMLSEAGLSVIETTSFVSPKWVPQMGDHTEVLKGIQKFPGINYPVLTPNLKGFEAAVAAGAKEVVIFGAASELFTKKNINCSIEESFQRFDAILKAAQSANISVRGYVSCALGCPYEGKISPAKVAEVTKKFYSMGCYEISLGDTIGVGTPGIMKDMLSAVMQEVPLAALAVHCHDTYGQALANTLMALQMGVSVVDSSVAGLGGCPYAQGASGNLATEDLVYMLEGLGIHTGVNLQKLLEAGNFICQALNRKTSSKVAQATCKL | 8 | 62 |
| P21964 (protein, UniProt P21964 1-271, looked up, full-length) MPEAPPLLLAAVLLGLVLLVVLLLLLRHWGWGLCLIGWNEFILQPIHNLLMGDTKEQRILNHVLQHAEPGNAQSVLEAIDTYCEQKEWAMNVGDKKGKIVDAVIQEHQPSVLLELGAYCGYSAVRMARLLSPGARLITIEINPDCAAITQRMVDFAGVKDKVTLVVGASQDIIPQLKKKYDVDTLDMVFLDHWKDRYLPDTLLLEECGLLRKGTVLLADNVICPGAPDFLAHVRGSSCFECTHYQSFLEYREVVDGLEKAIYKGPGSEAGP | 0 | 148 |
